# Measurements as given in PubChem BioAssay AID504444 (National Center for Advancing Translational Sciences (NCATS), 2011).
# About 7,500 (2.1%) of roughly 360,000 compounds were called active. Inconclusive means that the source gave no clear call. Such entries were picked first, then a sample of the others. Calls follow the shape of the dose curve; as a rule, active = well fitted inhibition curve with a large enough effect; inconclusive = small, poorly fitted or top-dose-only effect, or effect the other way; inactive = flat fitted curve, though single readings scatter. Potencies of inconclusive entries are doubtful fits and often do not repeat.
# Assay: Nrf2 qHTS screen for inhibitors; also: nearly all actives have a fitted effect of over 60% in size
# Conditions: A549 ARE-Fluc reporter, luciferase luminescence, 18-24 h; activity change, negative = inhibition: at 46 µM (top of the series)
# Method in brief: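 Nrf2 activity is the BugLite luminescence, read 15 min after reagent at room temperature, following CellTiter-Fluor cytotoxicity readout (30 min, 37C). Compound titrations were applied for 18-24 h to 5000 A549 ARE_Fluc cells/well in 5% FBS OPTI-MEM.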
# % is scaled to controls: 0 for no effect and ±100 for the full control effect; potency is read from the fitted curve at half-maximal effect.
Compound,Potency,"activity change, negative = inhibition"
CN(CC(=O)NC(=O)NCc1ccco1)Cc1nc2ccccc2c(=O)[nH]1,"inconclusive: 3.66 µM [activator, single point]",–
CC(C)(C)c1ccc(OCC(O)CNC(=O)c2ccccc2C(=O)O)cc1 (stereo unspecified),"inconclusive: 7.31 µM [activator, partial curve, poor fit]",–
Cc1ccccc1OCC(=O)Nc1ccc(N2CCOCC2)cc1N1CCOCC1,"inconclusive: 14.6 µM [falling, partial curve, poor fit]",–
C[C@H](CO)N1C[C@H](C)[C@@H](CN(C)Cc2ccc(Cl)c(Cl)c2)Oc2c(NC(=O)CCC(F)(F)F)cccc2C1=O,active: 18.4 µM,–
O=C(N/C(=C\c1ccc(Br)cc1)C(=O)N1CCCC1)c1cccs1,"inconclusive: 9.2 µM [falling, partial curve]",–
O=c1c2ccccc2oc2ccc(NCCCN3CCOCC3)cc12,"inconclusive: 16.4 µM [activator, single point]",–
Cc1ccc(C(=O)Nc2ccccc2)cc1S(=O)(=O)Nc1ccc(Cl)cn1,"inconclusive: 32.6 µM [falling, partial curve, poor fit]",–
CNC(=S)N1CCN(c2ccc(Cl)c(Cl)c2)CC1,"inconclusive: 0.517 µM [falling, full curve, poor fit]",–
CCc1ccc2c(c1)C1(NN=C(c3ccccc3)S1)C(=O)N2 (stereo unspecified),"inconclusive: 29.1 µM [falling, single point]",–
Cc1ccc(-c2noc(-c3ccc(NC4CCCC4)c([N+](=O)[O-])c3)n2)cc1,–,inactive: 1.32%
COc1ccc(-c2csc(NC(C)=O)n2)cc1OC,–,inactive: 11.3%
COc1ccc(CNC(=S)NCc2ccc(F)cc2)cc1OC,"inconclusive: 29.1 µM [falling, single point]",–
Cc1cccc(C)c1N=Cc1c(O)n(-c2nccs2)c(=O)c2ccccc12,–,inactive: -22.9%
COC(=O)c1cc(=O)nc2sccn12,–,inactive: -10.1%
O=C(CC1CS(=O)(=O)CC1CC(=O)Oc1ccccc1F)Oc1ccccc1F (stereo unspecified),"inconclusive: 29.1 µM [falling, single point]",–
CC(C)(C)OC(=O)N1CCC(c2nnc(SCc3ccccc3Cl)o2)CC1,–,inactive: -21.5%
COc1ccc(Cl)cc1NC(=O)C(C)n1c(=O)cc(C(F)(F)F)c2c(C)nn(C)c21 (stereo unspecified),"inconclusive: 20.6 µM [falling, single point]",–
O=C(Nc1nnc(SCC(=O)N2CCOCC2)s1)C1CC(=O)N(c2ccccc2)C1 (stereo unspecified),"inconclusive: 2.31 µM [falling, full curve]",–
CC(C)(C)c1ccc(C(=O)N2CCN(c3nc4ccccc4o3)CC2)cc1,"inconclusive: 14.6 µM [falling, partial curve, poor fit]",–
COc1ccccc1Sc1ccccc1/C=N/NC(N)=O,"inconclusive: 11.6 µM [falling, partial curve]",–
Cc1n[nH]c(C)c1CCCOc1ccccc1,"inconclusive: 5.8 µM [falling, partial curve, poor fit]",–
CCCN1CC(=O)N2Cc3[nH]c4ccccc4c3C[C@H]2C1=O,"inconclusive: 14.6 µM [falling, single point]",–

# Two entries from above, bar-delimited.
Compound | Potency | activity change, negative = inhibition
Cc1ccccc1OCC(=O)Nc1ccc(N2CCOCC2)cc1N1CCOCC1 | inconclusive: 14.6 µM [falling, partial curve, poor fit] | –
O=C(N/C(=C\c1ccc(Br)cc1)C(=O)N1CCCC1)c1cccs1 | inconclusive: 9.2 µM [falling, partial curve] | –

# Continued:

Compound,Potency,"activity change, negative = inhibition"
Cc1ccc(C(=O)NC2CCCCCCC2)cc1S(=O)(=O)N1CCOCC1,"inconclusive: 5.8 µM [activator, full curve, poor fit]",–
Cc1ccc(O)c(NC(=O)c2ccco2)c1,"inconclusive: 20.6 µM [activator, partial curve, poor fit]",–
O=C1c2ccccc2C(=O)N1c1cncc2ccccc12,–,inactive: 20.8%
Cc1ccc(NC(=O)C2CCN(S(=O)(=O)c3cccs3)CC2)cc1C,active: 25.9 µM,–
CCC(Cc1ccccc1)NS(=O)(=O)c1ccc2c(c1)NC(=O)C(C)S2 (stereo unspecified),"inconclusive: 29.1 µM [falling, single point]",–
CCc1ccc[n+](-c2[nH]c(=O)sc2/C=N/N=C(\[O-])CCn2c3ccccc3c3ccccc32)c1,"inconclusive: 4.61 µM [falling, single point]",–
COc1ccccc1C(=O)Nc1ccc2c(c1)nc1n2CCSC1,"inconclusive: 1.16 µM [activator, full curve, poor fit]",–
O=C(c1ccncc1)c1ccc(NS(=O)(=O)c2ccc(Br)s2)cc1,"inconclusive: 14.6 µM [falling, partial curve, poor fit]",–
CCCn1c(O)c(C=Nc2ccccc2)sc1=S,"inconclusive: 8.2 µM [activator, partial curve]",–
COC(=O)c1ccc(NC(=S)NC2CC2)cc1,"inconclusive: 2.31 µM [falling, partial curve, poor fit]",–
COCCn1c(=O)[nH]c(=O)c2c(C(F)(F)F)cc(-c3cccs3)nc21,"inconclusive: 9.2 µM [falling, partial curve, poor fit]",–
Cc1ccc(S(=O)(=O)N/N=C\c2cc3c(cc2[N+](=O)[O-])OCO3)cc1,"inconclusive: 0.411 µM [falling, full curve, poor fit]",–
COc1cc(/C=C/c2ccccc2)cc(OC)c1,"inconclusive: 23.1 µM [activator, partial curve]",–
CCCCCOc1ccc(NC(=O)C(=O)NCCCn2ccnc2)cc1,active: 9.2 µM,–
COC(=O)CSc1nc(N2CCOCC2)c2c(c1C#N)CC(C)(C)N(C)C2,"inconclusive: 6.51 µM [activator, single point]",–
Cc1ccc(C(=O)N/N=C/c2ccc(-c3ccc(Br)cc3[N+](=O)[O-])o2)o1,"inconclusive: 18.4 µM [falling, partial curve, poor fit]",–
O=C(COCc1cc(-c2ccc3c(c2)OCO3)on1)N1CCCCC1,"inconclusive: 4.11 µM [activator, partial curve, poor fit]",–
Cc1noc(-c2ccc(N3CCCCC3C)c([N+](=O)[O-])c2)n1 (stereo unspecified),"inconclusive: 20.6 µM [activator, partial curve, poor fit]",–
COc1cc(Cl)c(C)cc1NC(=O)c1c(C)oc2nc(C)nc(N3CCCC3)c12,"inconclusive: 29.1 µM [falling, single point]",–
COc1cc(/C=N/NC(=O)c2nnn(-c3nonc3N)c2C(C)C)ccc1OCc1ccc(F)cc1,active: 16.4 µM,–
CS(=O)(=O)N(Cc1ccc(C(=O)NCCSCc2ccco2)cc1)c1ccccc1,"inconclusive: 29.1 µM [falling, single point]",–
CCN(Cc1ccccc1)C(=O)c1ccc(N(C)S(=O)(=O)c2ccc(C)cc2)cc1,"inconclusive: 29.1 µM [falling, single point]",–

Compound,Potency,"activity change, negative = inhibition"
COc1ccccc1Nc1nc2ccc(C)cc2cc1C#N,"inconclusive: 11.6 µM [activator, partial curve]",–
CC1(C)CC(=O)c2cc(OCC(=O)NCCN3CCOCC3)ccc2O1,–,inactive: -13.9%
O=C(NC1CCS(=O)(=O)C1)c1ccc(S(=O)(=O)N2CCCCC2)cc1 (stereo unspecified),"inconclusive: 29.1 µM [falling, partial curve, poor fit]",–
C=CCn1c(SCc2csc(-c3ccc(C)cc3)n2)nnc1-c1ccccc1OC,"inconclusive: 25.9 µM [falling, single point]",–
COc1ccccc1NS(=O)(=O)c1cc(NC(=O)c2cccs2)ccc1N1CCCC1,–,inactive: -18.1%
COc1ccc(CCNS(=O)(=O)c2cc3c4c(c2)CC(=O)N4CCC3)cc1,"inconclusive: 13 µM [falling, partial curve, poor fit]",–
C/C(=N/NC(=O)CNC(=O)c1cccnc1)c1cccc([N+](=O)[O-])c1,"inconclusive: 0.0731 µM [falling, full curve]",–
CCc1nnc(N/N=C/c2ccc(O)c(OC)c2)n1N,–,inactive: 2.8%
COc1cc(NC(=O)c2ccco2)c(OC)cc1NC(=O)Nc1ccccc1Cl,"inconclusive: 23.1 µM [falling, single point]",–
COc1ccc(/C=C/C(=O)c2c(O)c(OC)c3occc3c2OC)cc1,"inconclusive: 20.6 µM [falling, partial curve, poor fit]",–
O=C(/C=C/c1ccco1)N1CCCC(c2ccccc2)C1 (stereo unspecified),–,inactive: 6.57%
Cc1cc(C(=O)COC(=O)c2ccc(N)c([N+](=O)[O-])c2)c(C)n1-c1ccc2c(c1)OCO2,active: 5.8 µM,–
Cc1ccc(NC(=O)CCc2nc(-c3ccccc3F)no2)c(C)c1,"inconclusive: 13 µM [activator, partial curve, poor fit]",–
COc1cc(C(=O)Nc2sc3c(c2C#N)CCCC3)c(Br)c(OC)c1OC,"inconclusive: 14.6 µM [activator, partial curve]",–
Cc1cccc(OCC(=O)Nc2nnc(S(=O)(=O)N3CCCCCC3)s2)c1,"inconclusive: 2.59 µM [activator, full curve]",–
CS(=O)(=O)c1ncc(Cl)c(C(=O)N(Cc2ccc(Cl)cc2)Cc2ccco2)n1,active: 23.1 µM,–
CN1CCN(c2nc(-c3ccc(Cl)s3)cs2)CC1,"inconclusive: 25.9 µM [activator, single point]",–
Cc1oc(-c2cc(F)ccc2F)nc1CN1CCN(C)C(=O)[C@@H]1C,"inconclusive: 5.8 µM [activator, partial curve, poor fit]",–
O=C(Nc1ccc(S(=O)(=O)NC2=NCCCCC2)cc1)c1cc(F)c(F)cc1Cl,–,inactive: -22.1%
O=C(CSc1ncc(-c2ccccc2)[nH]1)Nc1ccccc1F,"inconclusive: 7.31 µM [activator, partial curve]",–
Cc1ccc(-n2c(=O)c3oc4ccccc4c3n(Cc3ccccc3)c2=O)cc1C,"inconclusive: 29.1 µM [falling, single point]",–
Cc1ccc(-c2noc(-c3nnn(CC(=O)Nc4ccc(C)cc4Cl)c3N)n2)cc1,–,inactive: 18.5%
